Three substances from article doi:10.1101/2022.01.24.477557 can be followed below.

Amino acid sequences for entries named in this document (tags omitted). A change or cut given only in a name is not applied to a line headed by its entry.
UniProt P08727: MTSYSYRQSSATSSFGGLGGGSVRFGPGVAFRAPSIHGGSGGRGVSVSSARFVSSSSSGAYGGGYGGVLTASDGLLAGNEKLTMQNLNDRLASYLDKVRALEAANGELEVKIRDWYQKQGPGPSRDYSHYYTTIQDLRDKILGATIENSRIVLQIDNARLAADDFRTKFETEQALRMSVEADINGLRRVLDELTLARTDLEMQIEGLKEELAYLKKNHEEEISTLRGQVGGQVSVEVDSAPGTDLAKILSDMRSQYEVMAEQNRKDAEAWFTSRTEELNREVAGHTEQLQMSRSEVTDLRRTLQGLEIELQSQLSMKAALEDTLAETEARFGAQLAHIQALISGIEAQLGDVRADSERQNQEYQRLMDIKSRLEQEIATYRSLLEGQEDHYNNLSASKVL
UniProt P05787: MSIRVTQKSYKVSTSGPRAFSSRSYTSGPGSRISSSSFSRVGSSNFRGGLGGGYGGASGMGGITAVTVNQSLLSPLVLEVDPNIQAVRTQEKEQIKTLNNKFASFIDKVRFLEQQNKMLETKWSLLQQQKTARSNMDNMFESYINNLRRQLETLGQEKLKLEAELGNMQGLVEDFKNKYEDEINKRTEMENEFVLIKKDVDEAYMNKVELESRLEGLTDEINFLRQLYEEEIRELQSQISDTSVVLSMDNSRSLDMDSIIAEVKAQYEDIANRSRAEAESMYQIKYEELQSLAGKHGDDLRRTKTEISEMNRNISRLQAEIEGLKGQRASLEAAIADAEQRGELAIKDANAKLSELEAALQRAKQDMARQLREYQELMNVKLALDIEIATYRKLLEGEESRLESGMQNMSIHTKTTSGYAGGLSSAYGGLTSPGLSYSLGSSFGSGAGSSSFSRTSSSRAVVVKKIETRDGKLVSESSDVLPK

Results are given in words; binding and its absence hold for the method and conditions named. For some assays here: Binding seen in cells or lysates may run through a third protein. Some binding calls cover weakened binding; strength is not graded here.

In assay [1] the target is Keratin 19 (human (endogenous in MDA-MB-231)) (UniProt P08727). As to the kind of experiment: co-IP.
The target in a further assay is GFP-tagged K19 (UniProt P08727). As to the kind of experiment: co-IP.
Assay [2] deals with Keratin 19 (human (endogenous in MDA-MB-231)) (UniProt P08727). As to the kind of experiment: proximity ligation.
Assay [3] concerns the target Heterogeneous nuclear ribonucleoprotein K (human (endogenous in MDA-MB-231)) (UniProt P61978). Kind of assay: co-IP.
Assay [4] concerns the target preassembled K8/K19 filaments (UniProt P05787). Kind of assay: co-sedimentation.

Consider “Heterogeneous nuclear ribonucleoprotein K (from UniProt P61978 1-463)”, for which the binding result (in assay [1]; with GFP-tagged K19; in assay [2]) was “binds” throughout.
As for Keratin 19 (from UniProt P08727 1-400), the binding result in assay [3] is recorded as “binds”.
“recombinant HNRNPK (from UniProt P61978 1-463)”: the binding result in assay [4] is listed as “binds”.
